Laboratory results: PubChem BioAssay AID1259254 (NCATS, 2017)

Purpose: 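Genome-wide screen for genes that prevent DNA re-replication in cancer cells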 (primary screen)
System: human HCT116 colorectal cancer cells
Reagents: single siRNA against human genes
Duration: 3 days
Measurement: 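Imaged Hoechst DNA stain sorts each cell into a cycle phase by DNA amount; per plate, G2 fraction set to 0% for non-targeting and 100% for GMNN siRNA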
Direction: G2 robust z-score and G2 cells, % of GMNN control: higher = more G2 cells, more excess DNA replication; raw share of cells in G2: higher = larger share of cells with G2 DNA content
Hit rule: 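An siRNA counts as active if its G2 robust z-score lies at least 5 MADs above the screen median; here such calls match roughly 38% of GMNN control or more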
Here is a random part of about 59,000 deposited reagents. About 1,550 of all reagents (2.6%) count as active. 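G2 share is only a proxy for re-replication; each gene was hit by three separate siRNAs, and active genes were retested.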 The raw values are shown without normalisation. A number with no mark means an inactive call. Reagents against one gene are numbered here. The record does not give: the amount of reagent.

| Target gene | reagent | G2 robust z-score | G2 cells, % of GMNN control | raw share of cells in G2 (%) |
| --- | --- | --- | --- | --- |
| RAB5C | 1 | -0.524 | -0.716 | 3.91 |
| RAB5C | 2 | 2.3 | 19.2 | 11.6 |
| RAB5C | 3 | 3.02 | 24.2 | 13.9 |
| USP13 | 1 | -0.145 | 1.95 | 6.24 |
| USP13 | 2 | -1.27 | -5.94 | 2.81 |
| USP13 | 3 | -0.88 | -3.23 | 2.71 |
| TMEM126B | 1 | 0.139 | 3.94 | 6.04 |
| TMEM126B | 2 | 0.219 | 4.51 | 6.01 |
| TMEM126B | 3 | -0.883 | -3.24 | 2.1 |
| ACTMAP | 1 | -0.0666 | 2.5 | 4.55 |
| ACTMAP | 2 | -1.22 | -5.63 | 0.866 |
| ACTMAP | 3 | 1.4 | 12.8 | 7.16 |
| ETV1 | 1 | -0.553 | -0.923 | 3.09 |
| ETV1 | 2 | -0.212 | 1.48 | 5.54 |
| ETV1 | 3 | -0.163 | 1.82 | 3.77 |
| TMEM61 | 1 | 1.03 | 10.2 | 7.25 |
| TMEM61 | 2 | 2.49 | 20.5 | 9.82 |
| TMEM61 | 3 | -0.52 | -0.692 | 2.54 |
| BCAS2 | 1 | -0.722 | -2.11 | 3.16 |
| BCAS2 | 2 | -0.496 | -0.524 | 5.47 |
| BCAS2 | 3 | 0.771 | 8.39 | 9.79 |
| UBFD1 | 1 | -1.58 | -8.11 | 1.15 |
| UBFD1 | 2 | -0.466 | -0.312 | 4.31 |
| UBFD1 | 3 | 2.91 | 23.5 | 10.5 |
| KCNE3 | 1 | 3.48 | 27.5 | 15.3 |
| KCNE3 | 2 | 2.68 | 21.9 | 12.2 |
| KCNE3 | 3 | -0.886 | -3.27 | 3.1 |
| SPINK4 | 1 | -0.618 | -1.38 | 3.73 |
| SPINK4 | 2 | 0.13 | 3.88 | 5.26 |
| SPINK4 | 3 | -0.331 | 0.637 | 6.45 |
| ACTL8 | 1 | -0.112 | 2.18 | 6.34 |
| ACTL8 | 2 | -0.751 | -2.32 | 3.36 |
| ACTL8 | 3 | -0.29 | 0.928 | 5.13 |
| TRAPPC1 | 1 | -0.971 | -3.86 | 1.81 |
| TRAPPC1 | 2 | -0.323 | 0.694 | 4.62 |
| TRAPPC1 | 3 | -0.558 | -0.959 | 4 |
| XPNPEP1 | 1 | 3.23 | 25.7 | 14.5 |
| XPNPEP1 | 2 | 1.31 | 12.2 | 9.23 |
| XPNPEP1 | 3 | 0.207 | 4.42 | 5.56 |
| DYNLL2 | 1 | 6.4 (active) | 48 | 22.3 |
| DYNLL2 | 2 | 1.47 | 13.3 | 12.3 |
| DYNLL2 | 3 | -0.134 | 2.03 | 5.55 |
| APEH | 1 | 0.726 | 8.07 | 8.37 |
| APEH | 2 | -1.01 | -4.1 | 3.45 |
| APEH | 3 | -0.8 | -2.66 | 2.92 |
| CD1E | 1 | 2.39 | 19.8 | 10.9 |
| CD1E | 2 | 0.994 | 9.96 | 8.52 |
| CD1E | 3 | -0.354 | 0.48 | 5.17 |
| MAPKBP1 | 1 | -0.7 | -1.95 | 4.22 |
| MAPKBP1 | 2 | 0.17 | 4.16 | 5.85 |
| MAPKBP1 | 3 | -0.341 | 0.567 | 3.39 |
| DDIT4 | 1 | -1.13 | -5.02 | 1.81 |
| DDIT4 | 2 | 0.859 | 9.01 | 8.07 |
| DDIT4 | 3 | 7.21 (active) | 53.7 | 20.9 |
| PSAPL1 | 1 | -0.623 | -1.41 | 3.73 |
| PSAPL1 | 2 | -0.0436 | 2.66 | 4.25 |
| PSAPL1 | 3 | -0.168 | 1.78 | 3.72 |
| PEBP4 | 1 | 0.832 | 8.82 | 6.76 |
| PEBP4 | 2 | -0.25 | 1.21 | 3.36 |
| PEBP4 | 3 | -0.994 | -4.03 | 1.49 |
| ISOC1 | 1 | -0.398 | 0.165 | 6.03 |
| ISOC1 | 2 | 7.96 (active) | 59 | 26 |
| ISOC1 | 3 | -0.633 | -1.49 | 3.23 |
| PREX1 | 1 | -0.572 | -1.05 | 3.93 |
| PREX1 | 2 | -0.218 | 1.44 | 5.15 |
| PREX1 | 3 | -0.829 | -2.86 | 2.12 |
| LARGE1 | 1 | 1.67 | 14.7 | 11.2 |
| LARGE1 | 2 | 0.101 | 3.68 | 6.02 |
| LARGE1 | 3 | 0.136 | 3.92 | 6.64 |
| ZNF385C | 1 | -0.648 | -1.59 | 3.03 |
| ZNF385C | 2 | -0.271 | 1.06 | 3.31 |
| ZNF385C | 3 | -0.153 | 1.89 | 3.36 |
| PIRT | 1 | 0.358 | 5.49 | 5.73 |
| PIRT | 2 | 1.41 | 12.9 | 7.91 |
| PIRT | 3 | 1.37 | 12.6 | 6.82 |
| DHTKD1 | 1 | -0.741 | -2.25 | 5.44 |
| DHTKD1 | 2 | 1.13 | 10.9 | 8.36 |
| DHTKD1 | 3 | -0.829 | -2.86 | 3.14 |
| ANKAR | 1 | 0.263 | 4.82 | 5.44 |
| ANKAR | 2 | 0.497 | 6.46 | 4.91 |
| ANKAR | 3 | -0.344 | 0.546 | 3.26 |
| VSIG10L2 | 1 | -0.132 | 2.04 | 4.69 |
| VSIG10L2 | 2 | 1.57 | 14 | 9.4 |
| VSIG10L2 | 3 | 1.62 | 14.4 | 9.97 |
| OR51E2 | 1 | -0.236 | 1.31 | 4.99 |
| OR51E2 | 2 | 0.619 | 7.32 | 7.51 |
| OR51E2 | 3 | -0.933 | -3.6 | 1.39 |

Sorted by “G2 robust z-score” (highest first): some entries from above.
| Target gene | reagent | G2 robust z-score | G2 cells, % of GMNN control | raw share of cells in G2 (%) |
| --- | --- | --- | --- | --- |
| KCNE3 | 1 | 3.48 | 27.5 | 15.3 |
| UBFD1 | 3 | 2.91 | 23.5 | 10.5 |
| KCNE3 | 2 | 2.68 | 21.9 | 12.2 |
| TMEM61 | 2 | 2.49 | 20.5 | 9.82 |
| TMEM61 | 1 | 1.03 | 10.2 | 7.25 |
| BCAS2 | 3 | 0.771 | 8.39 | 9.79 |
| UBFD1 | 2 | -0.466 | -0.312 | 4.31 |
| BCAS2 | 2 | -0.496 | -0.524 | 5.47 |
| TMEM61 | 3 | -0.52 | -0.692 | 2.54 |
| BCAS2 | 1 | -0.722 | -2.11 | 3.16 |
| UBFD1 | 1 | -1.58 | -8.11 | 1.15 |
